Results published in patent US12180485B2, “Repressible control of gene expression” (TRUSTEES OF BOSTON UNIVERSITY, priority 2020, dated 2024).
Some of these results come from one statement about several compounds together.

Tested on: mCherry
Experiment: Drug inhibited knockdown system (Cas13 OFF switch, dNS3/ANR domains), mCherry expression
Type: cell-based

B1: 507/508: RfxCas13d split pair at 507/508 fused to CID or dNS3/ANR domains (protein)
chain 1: IEKKKSFAKGMGVKSTLVSGSKVYMTTFAEGSDARLEKIVEGDSIRSVNEGEAFSAEMADKNAGYKIGNAKFSHPKGYAVVANNPLYTGPVQQDMLGLKETLEKRYFGESADGNDNICIQVIHNILDIEKILAEYITNAAYAVNNISGLDKDIIGFGKFSTVYTYDEFKDPEHHRAAFNNNDKLINAIKAQYDEFDNFLDNPRLGYFGQAFFSKEGRNYIINYGNECYDILALLSGLRHWVVHNNEEESRISRTWLYNLDKNLDNEYISTLNYLYDRITNELTNSFSKNSAANVNYIAETLGINPAEFAEQYFRFSIMKEQKNLGFNITKLREVMLDRKDMSEIRKNHKVFDSIRTKVYTMMDFVIYRYYIEEDAKVAAANKSLPDNEKSLSEKDIFVINLRGSFNDDQKDALYYDEANRIWRKLENIMHNIKEFRGNKTREYKKKDAPRLPRILPAGRDVSAFSKLMYALTMFLDGKEINDLLTTLINKFDNIQSFLKVMPLIGVN
chain 2: AKFVEEYAFFKDSAKIADELRLIKSFARMGEPIADARRAMYIDAIRILGTNLSYDELKALADTFSLDENGNKLKKGKHGMRNFIINNVISNKRFHYLIRYGDPAHLHEIAKNEAVVKFVLGRIADIQKKQGQNGKNQIDRYYETCIGKDKGKSVSEKVDALTKIITGMNYDQFDKKRSVIEDTGRENAEREKFKKIISLYLTVIYHILKNIVNINARYVIGFHCVERDAQLYKEKGYDINLKKLEEKGFSSVTKLCAGIDETAPDKRKDVEKEMAERAKESIDSLESANPKLYANYIKYSDEKKAEEFTRQINREKAKTALNAYLRNTKWNVIIREDLLRIDNKTCTLFRNKAVHLEVARYVHAYINDIAEVNSYFQLYHYIMQRIIMNERYEKSSGKVSEYFDAVNDEKKYNDRLLKLLCVPFGYCIPRFKNLSIEALFDRNEAAKFDKEKKKVSGNS
modifications: fused CID or dNS3/ANR domains
notes: RfxCas13d split pair at 507/508 fused to CID or dNS3/ANR domains
target gene (mCherry) down regulation in the presence of inducer (Danoprevir/Grazoprevir added): less than 40%
constitutive knockdown (no inducer): over 70%
